Results from PMC3330813.
Results are given in words; binding and its absence hold for the method and conditions named. In cells and extracts the contact can be indirect. Some results given as binding are weak or reduced against the parent protein; the word gives no strength.

Protein sequences, listed by entry. Tags and fused reporters are not part of them.
UniProt P24723: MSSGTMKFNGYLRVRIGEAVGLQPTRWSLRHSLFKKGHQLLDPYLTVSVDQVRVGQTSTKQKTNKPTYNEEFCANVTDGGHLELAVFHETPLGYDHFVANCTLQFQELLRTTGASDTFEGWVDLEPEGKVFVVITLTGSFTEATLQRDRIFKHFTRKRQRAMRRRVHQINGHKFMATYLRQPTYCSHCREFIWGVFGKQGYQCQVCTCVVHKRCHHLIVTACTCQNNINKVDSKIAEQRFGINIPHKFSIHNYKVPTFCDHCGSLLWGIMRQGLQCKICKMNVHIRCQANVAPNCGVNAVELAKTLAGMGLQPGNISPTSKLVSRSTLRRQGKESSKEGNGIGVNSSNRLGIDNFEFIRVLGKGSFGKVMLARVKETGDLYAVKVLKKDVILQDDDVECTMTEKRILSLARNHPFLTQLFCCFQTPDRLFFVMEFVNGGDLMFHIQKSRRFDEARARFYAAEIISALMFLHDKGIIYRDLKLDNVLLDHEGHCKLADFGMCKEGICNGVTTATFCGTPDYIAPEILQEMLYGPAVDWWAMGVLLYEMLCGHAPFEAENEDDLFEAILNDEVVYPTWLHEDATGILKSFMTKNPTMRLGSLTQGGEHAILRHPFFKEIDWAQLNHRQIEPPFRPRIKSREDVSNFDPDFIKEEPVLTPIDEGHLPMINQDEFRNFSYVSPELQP

T1: annexin7 (ANX7) (human (endogenous in S2-013)) (UniProt P20073)
T1 sequence: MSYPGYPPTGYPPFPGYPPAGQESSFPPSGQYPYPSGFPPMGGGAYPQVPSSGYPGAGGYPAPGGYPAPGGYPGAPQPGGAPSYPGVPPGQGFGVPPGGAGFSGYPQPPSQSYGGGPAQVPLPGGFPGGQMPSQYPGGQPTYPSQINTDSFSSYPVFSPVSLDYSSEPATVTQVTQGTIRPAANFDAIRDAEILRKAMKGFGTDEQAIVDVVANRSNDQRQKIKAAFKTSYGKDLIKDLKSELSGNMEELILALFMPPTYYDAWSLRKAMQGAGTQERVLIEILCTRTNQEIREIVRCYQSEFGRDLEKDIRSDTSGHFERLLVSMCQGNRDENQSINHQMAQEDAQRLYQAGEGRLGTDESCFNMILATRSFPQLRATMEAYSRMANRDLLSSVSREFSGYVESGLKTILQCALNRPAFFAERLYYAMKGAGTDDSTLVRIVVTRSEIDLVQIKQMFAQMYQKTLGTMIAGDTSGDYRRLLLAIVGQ

T2: binder of Arl two (BART) (human (endogenous in S2-013)) (UniProt Q9Y2Y0)
T2 sequence: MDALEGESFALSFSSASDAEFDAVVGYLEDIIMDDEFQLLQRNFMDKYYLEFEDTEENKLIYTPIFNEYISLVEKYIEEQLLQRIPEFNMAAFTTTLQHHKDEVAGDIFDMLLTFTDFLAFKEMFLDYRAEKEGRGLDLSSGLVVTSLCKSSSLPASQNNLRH


Key:
[1] = target: T1, annexin7 (ANX7) (human (endogenous in S2-013)); assay: co-IP; endogenous proteins, S2-013 cells, precipitated with anti-ANX7 or anti-phospho-PKCα antibody, Western blot with antibodies against ANX7, phospho-PKCα and phospho-PKCη
[2] = target: T2, binder of Arl two (BART) (human (endogenous in S2-013)); assay: co-IP; endogenous proteins, S2-013 lysate, precipitated with anti-BART or anti-ANX7 antibody, Western blot; also cells treated with PMA with or without calphostin C or chelerythrine chloride (BART IP)

| binding [1] | binding [2] | Molecule |
| --- | --- | --- |
| binds |  | phosphorylated PKCα (from UniProt P17252 1-672) (enzyme) |
| no binding |  | Phospho-PKCη (from UniProt P24723 1-683) (enzyme) |
|  | binds | annexin7 (ANX7) (protein, UniProt P20073-1 1-488) MSYPGYPPTGYPPFPGYPPAGQESSFPPSGQYPYPSGFPPMGGGAYPQVPSSGYPGAGGYPAPGGYPAPGGYPGAPQPGGAPSYPGVPPGQGFGVPPGGAGFSGYPQPPSQSYGGGPAQVPLPGGFPGGQMPSQYPGGQPTYPSQINTDSFSSYPVFSPVSLDYSSEPATVTQVTQGTIRPAANFDAIRDAEILRKAMKGFGTDEQAIVDVVANRSNDQRQKIKAAFKTSYGKDLIKDLKSELSGNMEELILALFMPPTYYDAWSLRKAMQGAGTQERVLIEILCTRTNQEIREIVRCYQSEFGRDLEKDIRSDTSGHFERLLVSMCQGNRDENQSINHQMAQEDAQRLYQAGEGRLGTDESCFNMILATRSFPQLRATMEAYSRMANRDLLSSVSREFSGYVESGLKTILQCALNRPAFFAERLYYAMKGAGTDDSTLVRIVVTRSEIDLVQIKQMFAQMYQKTLGTMIAGDTSGDYRRLLLAIVGQ |
